These are yes or no findings as the source states them, for the method shown. In cells and extracts the contact can be indirect. Some entries that bind do so weakly or less than the wild type. Tags and fused reporters may be left off the sequences shown. One block for each molecule: values may come before it.
Key:
[1] = target: T1, MP60, 60-amino-acid micropeptide encoded by LINC01138 (ENST00000614292), Flag knock-in (human (endogenous in 293T)); test: co-IP; cell lysates in IP Lysis Buffer, primary antibody (anti-Flag or anti-RBM10) overnight at 4 °C, Protein A agarose beads 2 h at 4 °C, three washes, immunoblot
T1 sequence: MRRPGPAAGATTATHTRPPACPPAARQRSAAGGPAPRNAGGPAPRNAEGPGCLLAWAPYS

Protein sequences, listed by entry. Tags and fused reporters are not part of them.
UniProt P98175: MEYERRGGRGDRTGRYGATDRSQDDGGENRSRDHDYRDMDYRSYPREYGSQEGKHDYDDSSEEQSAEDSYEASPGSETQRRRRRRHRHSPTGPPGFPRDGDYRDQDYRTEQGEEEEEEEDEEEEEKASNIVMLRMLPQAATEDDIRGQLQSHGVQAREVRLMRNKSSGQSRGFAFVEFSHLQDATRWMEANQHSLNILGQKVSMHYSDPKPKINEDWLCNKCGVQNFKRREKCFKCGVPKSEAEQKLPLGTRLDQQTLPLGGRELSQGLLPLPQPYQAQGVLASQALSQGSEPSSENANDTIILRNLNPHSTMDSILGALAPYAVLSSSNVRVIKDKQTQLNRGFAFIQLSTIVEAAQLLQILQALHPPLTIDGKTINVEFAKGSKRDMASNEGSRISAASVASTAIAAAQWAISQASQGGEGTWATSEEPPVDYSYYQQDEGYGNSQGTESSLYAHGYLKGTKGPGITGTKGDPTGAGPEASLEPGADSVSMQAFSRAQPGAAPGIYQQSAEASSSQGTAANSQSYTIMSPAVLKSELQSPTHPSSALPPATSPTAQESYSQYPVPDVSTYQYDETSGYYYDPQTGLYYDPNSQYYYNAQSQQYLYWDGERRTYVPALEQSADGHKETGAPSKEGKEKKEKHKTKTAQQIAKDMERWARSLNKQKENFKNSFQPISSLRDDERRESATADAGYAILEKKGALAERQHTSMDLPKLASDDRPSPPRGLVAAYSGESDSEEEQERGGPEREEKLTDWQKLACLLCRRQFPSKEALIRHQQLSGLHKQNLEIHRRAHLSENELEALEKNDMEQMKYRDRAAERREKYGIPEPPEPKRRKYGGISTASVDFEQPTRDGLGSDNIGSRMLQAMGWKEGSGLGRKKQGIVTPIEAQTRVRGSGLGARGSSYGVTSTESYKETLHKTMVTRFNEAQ

[2] = target: RNA-binding motif protein 10 (RBM10) (human (endogenous in 293T)) (UniProt P98175); test: as above

- binding [1]: binds
Molecule: RNA-binding motif protein 10 (RBM10) (from UniProt P98175 1-930)

- binding [2]: binds
B1: MP60, 60-amino-acid micropeptide encoded by LINC01138 (ENST00000614292), Flag knock-in (peptide)
chain: T1 sequence
